Measurements as given in PubChem BioAssay AID504467 (National Center for Advancing Translational Sciences (NCATS), 2011).
Hit rate of the full screen: of about 330,000 compounds, about 7,700 (2.3%) were called active. Inconclusive means that the source gave no clear call. Such entries were picked first, then a sample of the others. The call rests on the fitted dose curve; in most records, active means well fitted inhibition curve with a large enough effect; inconclusive means small, poorly fitted or top-dose-only effect, or effect the other way; inactive means flat fitted curve, though single readings scatter. Potencies of inconclusive entries are doubtful fits and often do not repeat.
Potency means the concentration at half of the fitted maximal effect.

Test: qHTS screen for small molecules that inhibit ELG1-dependent DNA repair in human embryonic kidney (HEK293T) cells expressing luciferase-tagged ELG1; further: nearly all actives have a fitted effect of over 55% in size
Conditions: HEK293T ELG1-luciferase reporter, luminescence, 16 h, DNA damage induced by 5-fluorouridine; series mostly up to 46.1 µM
In short: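 Quantitative HTS, concentration-response format. 2,000 cells/well co-treated with 5-fluorouridine and compound, 16 hr in 5% CO2 at 37 °C; ONE-Glo luminescence read after 30 min.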
With `CC(C)(C)C1c2[nH]c3ccccc3c2CCN1Cc1cccc(OCCO)c1` (stereo not drawn) the Potency was inconclusive: 29.1 µM [activator, single point].
In the case of `Cc1ccc(C)c(S(=O)(=O)N2CCN(c3ncccn3)CC2)c1`, the Potency is reported as inconclusive: 23.1 µM [inhibitor, single point].
With `CCc1ccc(C(=O)Nn2cnc3ccccc3c2=O)cc1` the Potency was inconclusive: 11.6 µM [activator, partial curve].
For `Cc1ccc2nc(-c3ccccc3N)[nH]c2c1`, the Potency was inconclusive: 1.64 µM [activator, partial curve].
For `COc1ccc(-c2nn(-c3ccccc3)cc2C(=O)NCC2CCCO2)cc1` (stereo not drawn), the Potency was inconclusive: 20.6 µM [inhibitor, single point].
In the case of `CCOc1ccc(N(C(=O)c2cnsn2)C(C(=O)NC2CCCCC2)c2ccncc2)cc1` (stereo not drawn), the Potency is reported as “inactive”.
For `CC(Oc1cccc(Cl)c1)C(=O)Nc1ccccc1N1CCCC1` (stereo not drawn), the Potency was “inactive”.
For `CC1(C(=O)NCc2ccc(Cl)c(Cl)c2)Oc2ccccc2NC1=O` (stereo not drawn), the Potency was “inactive”.
For `O=C(NC(=O)c1ccc(Cl)cc1)OC1CCCCC1`, the Potency was inconclusive: 20.6 µM [activator, partial curve].
In the case of `N#Cc1c(NC(=O)Cn2c(=O)oc3ccccc32)oc(-c2ccccc2)c1-c1ccccc1`, the Potency is reported as “inactive”.
In the case of `COc1cc(CN2C(=S)NC(C)(C)CC2(C)O)cc(OC)c1` (stereo not drawn), the Potency is reported as “inactive”.
In the case of `Clc1ccc(-c2cn3c(n2)SCC3)cc1`, the Potency is reported as inconclusive: 5.8 µM [activator, partial curve].
In the case of `O=c1oc2ccccc2cc1-c1cn2cccnc2n1`, the Potency is reported as inconclusive: 2.59 µM [activator, partial curve].
For `O=C(CN1CCN(S(=O)(=O)c2ccccc2)CC1)Nc1cccc(C(F)(F)F)c1`, the Potency was inconclusive: 29.1 µM [inhibitor, single point].
With `CCN(CC)CCn1cnc2c1c(=O)n(CCOC(=O)c1cc(OC)c(OC)c(OC)c1)c(=O)n2C` the Potency was inconclusive: 7.3 µM [activator, partial curve, poor fit].
In the case of `COCCNC(=S)N1CCOCC1`, the Potency is reported as inconclusive: 29.1 µM [activator, single point].
With `N#Cc1ccc(/C=N/NC(=O)c2cccc(S(=O)(=O)N3CCOCC3)c2)cc1` the Potency was “inactive”.
With `O=C(Nc1cccc(NC(=O)c2cccc([N+](=O)[O-])c2)n1)c1cccc([N+](=O)[O-])c1` the Potency was active: 2.06 µM.
In the case of `CC(C)(C)N/N=C/c1c(O)n(-c2ccc(Cl)cn2)c(=O)c2ccccc12`, the Potency is reported as inconclusive: 4.11 µM [inhibitor, partial curve, poor fit].
With `COc1ccc(NC(=O)c2sc(Cl)nc2-c2ccccc2)cc1` the Potency was “inactive”.
For `Cc1ccc(NC(=O)C2CCN(C(=O)[C@@H]3Cc4ccccc4CN3)CC2)cc1`, the Potency was inconclusive: 18.3 µM [activator, partial curve].
With `Cc1cc(C)n(Cc2ccc(NC(=O)c3ccc(COc4ccccc4Br)cc3)cc2)n1` the Potency was inconclusive: 13 µM [inhibitor, partial curve].
For `O=C(NCc1ccccc1)C1CCCN(c2ncnc3c2nc2n3CCCCC2)C1` (stereo not drawn), the Potency was inconclusive: 14.6 µM [inhibitor, partial curve, poor fit].
In the case of `CC(C)(CC(=O)O)CC(=O)N1CCN(c2cc(C(F)(F)F)nc3ccccc23)CC1`, the Potency is reported as “inactive”.
With `CC1CCCC(C)N1C(=O)COC(=O)c1cc(F)c(F)cc1Cl` (stereo not drawn) the Potency was “inactive”.
In the case of `CCCc1nc(SCc2ccc(Cl)cc2Cl)n[nH]1`, the Potency is reported as inconclusive: 20.6 µM [activator, single point].
With `CCOC(=O)COc1nc(-c2ccco2)cc(-c2ccco2)c1C#N` the Potency was inconclusive: 29.1 µM [inhibitor, single point].
With `Cc1nc(Nc2ccc(S(N)(=O)=O)cc2)sc1-c1ccccc1` the Potency was inconclusive: 13 µM [activator, partial curve].
With `CCOC(=O)c1nc2nc(-c3cccs3)cc(C(F)(F)F)n2n1` the Potency was “inactive”.
For `Clc1nc2ccccc2nc1-c1ccccc1`, the Potency was inconclusive: 32.6 µM [activator, partial curve, poor fit].
For `O=[N+]([O-])c1ccccc1/C=N/N1CCN(c2ccncc2S(=O)(=O)N2CCCCC2)CC1`, the Potency was inconclusive: 23.1 µM [inhibitor, single point].
In the case of `Cc1nn(CCOc2ccccc2)c(=O)n1-c1ccccc1F`, the Potency is reported as inconclusive: 14.6 µM [activator, partial curve].
In the case of `O=C(CN1CCCC1)N/N=C/c1c(O)ccc2ccccc12`, the Potency is reported as active: 5.17 µM.
In the case of `CCOC(=O)Cn1nc(-c2ccc(F)cc2)oc1=O`, the Potency is reported as inconclusive: 23.1 µM [activator, partial curve, poor fit].
For `NC(=O)c1cc[n+](Cc2ccccc2Cl)cc1`, the Potency was inconclusive: 35.5 µM [inhibitor, single point].
In the case of `Cc1oc(=O)c(NC(=O)c2cccc(Cl)c2)cc1C(=O)c1ccccc1`, the Potency is reported as inconclusive: 1.3 µM [activator, full curve].
With `CC1CCN(S(=O)(=O)c2cccc(C(=O)Nc3ccccc3)c2)CC1` the Potency was “inactive”.
For `Cc1cc(N2CCOCC2)nc(NCc2ccccc2)n1`, the Potency was inconclusive: 16.4 µM [inhibitor, partial curve].
In the case of `COc1cc2c(-c3ccccc3O)nc3c(c(C)nn3-c3ccccc3)c2cc1OC`, the Potency is reported as “inactive”.
For `C=CCn1c(C)cc(C(=O)Cn2nc(C(=O)O)c3ccccc3c2=O)c1C`, the Potency was inconclusive: 5.17 µM [activator, partial curve].
With `Cc1ccc(S(=O)(=O)N2CCC(C(=O)OCC(=O)N(C)c3ccccc3)CC2)cc1C` the Potency was “inactive”.
With `CSCCC(NC(=O)c1ccco1)C(=O)N1CC(C)OC(C)C1` (stereo not drawn) the Potency was “inactive”.
For `O=C(Nc1nnc(CSCc2ccc(F)cc2)s1)c1cccc([N+](=O)[O-])c1`, the Potency was “inactive”.
With `CC(C)(C)c1cc(C(=O)NNC(=O)c2ccc(C(F)(F)F)cc2)no1` the Potency was “inactive”.
With `O=C1/C(=C\c2ccncc2)CCc2ccccc21` the Potency was inconclusive: 31.6 µM [inhibitor, single point].
For `S=c1[nH]nc(-c2ccc(Cl)cc2Cl)n1-c1ccc2c(c1)OCCO2`, the Potency was “inactive”.
In the case of `CC1Cc2nc(SCC(=O)Nc3nccs3)n(Cc3ccccc3)c(=O)c2S1` (stereo not drawn), the Potency is reported as inconclusive: 23.1 µM [inhibitor, single point].
For `CCCCS(=O)CC(O)COc1ccc(C(C)(C)C)cc1` (stereo not drawn), the Potency was “inactive”.
In the case of `CCCCC1CCC(C(=O)N(CC(C)C)c2c(N)n(Cc3ccccc3)c(=O)[nH]c2=O)CC1` (stereo not drawn), the Potency is reported as inconclusive: 2.91 µM [inhibitor, partial curve, poor fit].
In the case of `Cc1cccc(C2c3[nH]c4ccccc4c3CCN2C(=O)c2ccc(=O)[nH]c2)n1` (stereo not drawn), the Potency is reported as “inactive”.
In the case of `COCCCNC(=O)Cn1cc(/C=C(\C#N)C(=O)N2CCN(c3ccccc3)CC2)c2ccccc21`, the Potency is reported as inconclusive: 29.1 µM [inhibitor, single point].
In the case of `O=c1oc2ccccc2c(Nc2ccc(F)cc2)c1[N+](=O)[O-]`, the Potency is reported as “inactive”.
For `Cc1cccc(NC(=O)c2cnc3sccn3c2=O)c1C`, the Potency was inconclusive: 8.2 µM [activator, partial curve].
With `Brc1ccc(-c2csc(Nc3nc(-c4ccc(Br)cc4)cs3)n2)cc1` the Potency was inconclusive: 5.17 µM [inhibitor, full curve].
For `Nc1ccc2nc(-c3cc(Cl)c(N)c(Cl)c3)[nH]c2c1`, the Potency was inconclusive: 2.59 µM [activator, full curve].
For `CCCCOc1ccc(C(=O)NCc2ccncc2)cc1`, the Potency was inconclusive: 7.31 µM [inhibitor, partial curve].
For `Cc1ccc(-c2nc3cc(N)ccc3o2)cc1Br`, the Potency was inconclusive: 7.94 µM [activator, partial curve, poor fit].
With `COc1ccc(N2CCN(c3cc(C)c4ccc(C)cc4n3)CC2)cc1` the Potency was “inactive”.
In the case of `O=C1c2ccccc2NC(c2cccc([N+](=O)[O-])c2)N1CCc1ccccc1` (stereo not drawn), the Potency is reported as inconclusive: 2.59 µM [activator, single point].
For `BrCCOCCOc1ccc2ccccc2c1`, the Potency was inconclusive: 16.4 µM [activator, partial curve].
In the case of `COCCn1nnnc1C(c1cc2ccc(C)cc2[nH]c1=O)N(Cc1ccco1)Cc1cccs1` (stereo not drawn), the Potency is reported as inconclusive: 25.9 µM [inhibitor, single point].
In the case of `O=c1[nH]c(CN2CCN(c3ccc([N+](=O)[O-])cc3)CC2)nc2ccsc12`, the Potency is reported as inconclusive: 18.4 µM [inhibitor, single point].
In the case of `CCn1ncc(Br)c1C(=O)Nc1ncc(C)s1`, the Potency is reported as inconclusive: 20.6 µM [activator, single point].
With `CCOC(=O)c1c(C)nc2sc(C(N)=O)c(N)c2c1-c1ccccc1` the Potency was inconclusive: 23.1 µM [inhibitor, single point].
For `CC(C)(C)CC(=O)Nc1cc(S(=O)(=O)N2CCOCC2)ccc1N1CCCC1`, the Potency was “inactive”.
With `CCSc1nc2[nH]ncc2c(=O)[nH]1` the Potency was “inactive”.
With `COc1ccc2cc(C(C)C(=O)N3CCC(C)CC3)ccc2c1` (stereo not drawn) the Potency was “inactive”.
For `COC(=O)N1CCN(c2ccc(OC)cc2)CC1`, the Potency was inconclusive: 25.9 µM [activator, partial curve, poor fit].
In the case of `CN1C(=O)Cc2cc(S(=O)(=O)N3CCN(c4cccc(C(F)(F)F)c4)CC3)ccc21`, the Potency is reported as “inactive”.
With `O=C(c1cc2nc(-c3ccco3)cc(C(F)(F)F)n2n1)N1CCN(c2ccccn2)CC1` the Potency was inconclusive: 14.6 µM [inhibitor, partial curve].
For `Cc1[nH]c2ccccc2c1C(=O)CCl`, the Potency was inconclusive: 18.3 µM [inhibitor, partial curve, poor fit].
With `COc1ccc(S(=O)(=O)N(CC(=O)NCC2CCCO2)Cc2ccccc2)cc1` (stereo not drawn) the Potency was “inactive”.
With `COc1ccc([N+](=O)[O-])cc1NC(=O)Nc1cccc(Cl)c1` the Potency was inconclusive: 4.11 µM [inhibitor, partial curve, poor fit].
